This test in a line: IkB Signaling. The conditions noted are these: ABC-DLBCL IkBa-CBG/CBR dual luciferase ratio (green luciferase fused to IkBa over red control in OCI-Ly3 lymphoma cells), 4 h. In outline:
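Luminescence ratio of IκBα-fused green versus native red beetle luciferase in OCI-Ly3 cells, 4 h post-doxycycline with compound; red signal alone, scaled from basal (0%) to zero light (-100%), flagged nonspecific or cytotoxic effects.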

Setting [1] is: measured here: control luc red channel unless noted.

This is one part of the list. These are further read-outs of the screen, such as a control signal, another cell line or another target. No call is given for them. The list favours compounds with an active or inconclusive main result. The note in brackets gives the kind of curve behind each potency; many fits are weak.

As for `COc1ccc(N(C(=O)c2ccco2)C(C(=O)NC2CCCC2)c2ccc(N(C)C)cc2)cc1` (centres undefined), under setting [1], the AC50 (in general, the midpoint of the concentration-response curve, whichever way the signal moves) was 12.6 µM [falling, partial curve].

With `CCOC(=O)Cc1csc(NC(=O)CSc2nc3cccnc3n2CC)n1`, the concentration at half-maximal activity (AC50) under setting [1] is 25.1 µM [falling, single point].

As to `CCS(=O)(=O)c1ncc(Cl)c(C(=O)Nc2ccc(S(=O)(=O)N(C)c3ccccc3)cc2)n1`, under setting [1], the AC50 was 3.16 µM [falling, full curve].

Regarding `CC1CCCCN1CCNC(=O)c1ccc(Cn2c(SCc3ccccc3)nc3cccnc32)cc1` (centres undefined), the concentration at half-maximal activity (AC50) under setting [1] is 25.1 µM [falling, single point].

As to `Cc1noc(C)c1CSCC(=O)N1CCN(c2ccc(F)cc2)CC1`, the AC50 under setting [1] was 25.1 µM [falling, partial curve].

As for `Cc1cccc(C)c1Nc1sc(C(=O)c2ccccc2)c(N)c1S(=O)(=O)c1ccccc1`, the AC50 under setting [1] was 39.8 µM [falling, single point].

On to `CCc1cccc(NC(=O)C2CCN(S(=O)(=O)c3ccc(Br)s3)CC2)c1`, for which, under setting [1], the AC50 is 15.8 µM [falling, partial curve].

In the case of `Cc1ccc(C)c(NC(=O)Nc2cc3c(cc2N2CCCCC2)n(C)c(=O)n3C)c1`, under setting [1], the AC50 is 3.16 µM [falling, single point].

Turning to `COc1ccc(Cn2c(C(=O)O)c(CNCc3ccco3)c3ccc(C)cc32)cc1`, the AC50 under setting [1] is 20 µM [falling, partial curve].

In the case of `COCCNC(=O)CSc1c(C)cnc2c1c(=O)n(C)c(=O)n2C`, the AC50 under setting [1] was 5.01 µM [rising, partial curve].

For the compound `Cc1ccc(NC(=O)Cn2cnc3c(oc4ccccc43)c2=O)cc1Cl`, the AC50 under setting [1] is 20 µM [falling, single point].

Regarding `CCSc1ccccc1C(=O)N1CCN(c2nc3ccccc3s2)CC1`, under setting [1], the AC50 is 31.6 µM [falling, single point].

`COc1cccc(NC(=O)c2oc3ccc(S(=O)(=O)N(C)C4CCCCC4)cc3c2C)c1`: the AC50 under setting [1] was 12.6 µM [falling, partial curve].

For the compound `COC(=O)c1ccc(NC(=O)c2cnn(-c3ccc(Cl)cc3)c2C2CCN(C(=O)OC(C)(C)C)CC2)cc1`, the AC50 under setting [1] was 39.8 µM [falling, single point].

For `Cc1cccc(C)c1NC(=O)CSc1nnc(Cn2nnc(-c3ccccc3)n2)n1-c1ccccc1`, under setting [1], the AC50 was 20 µM [falling, single point].

For `Clc1ccc(-c2nnc3sc(-c4ccc(Br)o4)nn23)c(Cl)c1`, the AC50 under setting [1] was 20 µM [falling, partial curve].

As for `Cc1cc(C)c(NC(=O)c2cc(C)nc3c2c(C)nn3-c2cccc(F)c2)c(C)c1`, the AC50 under setting [1] is 31.6 µM [falling, single point].

Turning to `CCN(CC)C(=O)c1c(NC(=O)c2ccccc2F)sc2c1CCC(C(C)(C)C)C2` (centres undefined), under setting [1], the AC50 is 12.6 µM [falling, partial curve].

With `CCCn1c(=O)sc2cc(NC(=O)c3ccccc3Cl)ccc21`, under setting [1], the AC50 was 39.8 µM [falling, single point].

Turning to `COc1cccc(N2CCN(C(=O)c3cccn3-c3nnc(N4CCCCC4)s3)CC2)c1`, the AC50 under setting [1] was 15.8 µM [falling, partial curve, poor fit].

As for `COCCCNC(=O)CCCn1c(SCC(=O)c2ccc(Br)cc2)nc2c(sc3ccccc32)c1=O`, the AC50 under setting [1] was 12.6 µM [falling, partial curve].

`Cc1ccc(C(=O)NCC(c2ccc(Cl)cc2)N2CCCCC2)cc1` (centres undefined): the AC50 under setting [1] was 39.8 µM [falling, single point].

For `CCOc1ccc(C(=O)N2CC(=O)Nc3ccc(C)cc3C2c2ccc(F)cc2)cc1OCC` (centres undefined), the AC50 under setting [1] was 31.6 µM [falling, single point].

On to `Cc1ccc(Cl)c2sc(NC(=O)c3ccc(S(=O)(=O)N4CCCC4)cc3)nc12`, for which the concentration at half-maximal activity (AC50) under setting [1] was 1 µM [falling, partial curve].

Take `C/C(=N/Nc1ccc2ccccc2n1)c1ccccc1O`: the AC50 under setting [1] is 0.794 µM [falling, partial curve].

Turning to `O=C(CSc1nn(-c2ccc(F)cc2)c(=S)s1)NC(=O)NCc1ccco1`, the AC50 under setting [1] was 12.6 µM [falling, partial curve].

Consider `CSc1cccc(-n2nnc(-c3nsc(NC(=O)c4cccs4)n3)c2C)c1`, for which the AC50 under setting [1] was 0.1 µM [rising, full curve, poor fit].

In the case of `O=C(Nc1cnn(Cc2ccc(Cl)cc2Cl)c1)c1noc2c1CCCC2`, under setting [1], the AC50 was 12.6 µM [falling, partial curve].

`CCn1c(SCC(=O)Nc2ccc3c(c2)c2ccccc2n3CC)nnc1-c1cnccn1`: under setting [1], the AC50 is 3.16 µM [falling, full curve, poor fit].

`Cc1ccc(NC(=O)CN2C(=O)C(c3ccccc3)=NC23CCCCC3)cc1C`: under setting [1], the AC50 is 31.6 µM [falling, single point].

`CCc1ccc2occ(CC(=O)N(Cc3ccccc3)C3CCS(=O)(=O)C3)c2c1` (centres undefined): under setting [1], the AC50 was 25.1 µM [falling, single point].

Consider `COc1ccc(-n2c(C)nc3c(cnn3-c3ccc(C)c(C)c3)c2=O)cc1Cl`, for which, under setting [1], the AC50 is 10 µM [falling, partial curve].

Regarding `Cc1ccc(C)c(C(=O)N(Cc2nc(-c3ccc(Cl)cc3)no2)C(C)C)c1`, the AC50 under setting [1] was 10 µM [falling, partial curve].

For the compound `COc1cc(/C=C(/C#N)c2nc(-c3cc4ccccc4oc3=O)cs2)ccc1O`, the AC50 (measured here: IkB-luc green channel) is 25.1 µM [rising, single point] and the AC50 (measured here: control luc red channel) is 15.8 µM [rising, partial curve].

`Cc1cccc(NC(=O)CSc2nc3c([nH]c4ccccc43)c(=O)n2-c2cc(C)cc(C)c2)c1`: the AC50 under setting [1] was 2.51 µM [rising, partial curve].

With `CCOC(=O)Cc1csc(NC(=O)c2csc(C)c2)n1`, the AC50 under setting [1] was 10 µM [falling, partial curve].

With `CC1CCCCN1C(=O)CSc1nc(-c2ccccc2)no1` (centres undefined), under setting [1], the AC50 is 15.8 µM [falling, partial curve].

As for `COc1cc(OC)cc(C(=O)Nc2nc(-c3nnn(-c4ccc(C)cc4)c3C)ns2)c1`, under setting [1], the AC50 was 15.8 µM [rising, partial curve].

As for `OC(CN1CCN(c2cccc(C(F)(F)F)c2)CC1)c1c[nH]c2ccccc12` (centres undefined), the AC50 under setting [1] is 15.8 µM [falling, partial curve].

`CCCCNc1nc(N(C)c2ccccc2)nc(-n2ccnc2)n1`: under setting [1], the AC50 is 10 µM [falling, partial curve].

`CCOC(=O)C1CCN(CC(=O)Nc2c(C(=O)OC)[nH]c3ccc(Cl)cc23)CC1`: the AC50 under setting [1] was 31.6 µM [falling, partial curve].

As to `COc1ccccc1NC(=O)N1CCn2c(nc3ccccc32)C1`, the AC50 under setting [1] is 5.01 µM [falling, partial curve].

As for `CCOc1ccc(CCNC(=O)CSCc2nc(-c3cccc(C)c3)oc2C)cc1OCC`, the AC50 under setting [1] was 31.6 µM [falling, partial curve].

As to `CCc1cccc2c(-c3ccccc3)nc(SCC(=O)Nc3ccc(OC)cc3)nc12`, the AC50 under setting [1] is 2.51 µM [rising, partial curve].

For `Cc1cc2nn(-c3ccccc3)nc2cc1NC(=O)Cc1ccc(Cl)cc1`, the AC50 under setting [1] was 2 µM [rising, partial curve].

Regarding `C=C(Cl)COc1ccc2c(C)cc(=O)oc2c1`, under setting [1], the AC50 was 3.16 µM [rising, partial curve].

Take `Cc1cccc(C)c1NC(=O)CSc1nc(-c2cccs2)cc(C(F)(F)F)n1`: the AC50 under setting [1] was 1.26 µM [rising, full curve, poor fit].

As for `O=C(COC(=O)c1cc(-c2ccco2)nc2ccccc12)NCc1ccc2c(c1)OCO2`, the half-maximal activity concentration (AC50) under setting [1] is 10 µM [falling, partial curve].

For `O=C(Nc1ccc(N2CCN(C(=O)c3ccco3)CC2)c(Cl)c1)c1cccs1`, under setting [1], the AC50 is 7.94 µM [falling, full curve].

`O=C(Nc1ccc(F)c(Cl)c1)C1CCCN(S(=O)(=O)c2cccc3nsnc23)C1` (centres undefined): the AC50 under setting [1] was 10 µM [falling, partial curve].

With `COc1ccc(CCN(Cc2nc3ccccc3c(=O)[nH]2)C(=O)c2ccco2)cc1`, under setting [1], the AC50 was 15.8 µM [falling, partial curve].

As for `O=c1c2c3nc4ccccc4nc3n(Cc3ccccc3)c2ncn1Cc1ccco1`, the AC50 under setting [1] is 12.6 µM [falling, partial curve].

Take `Cc1cc(C(=O)Nc2ccccc2C#N)n(-c2ccccc2)n1`: under setting [1], the AC50 is 6.31 µM [rising, single point] [measured here: IkB-luc green channel].

On to `CCc1ccccc1NC(=O)CCc1c(C)nc2cc(-c3ccccc3)nn2c1C`, for which the AC50 under setting [1] is 25.1 µM [falling, partial curve].

As for `O=C(N/N=C\c1ccccc1O)c1ccccc1O`, the AC50 under setting [1] was 0.794 µM [falling, full curve].

`O=C(NC1CC(=O)N(c2ccc(Cl)cc2)C1)C(=O)c1c[nH]c2ccccc12` (centres undefined): the AC50 under setting [1] is 3.16 µM [rising, single point].

Consider `Cc1ccc2nc3c(cc2c1)CN(Cc1ccco1)C(=NCC1CCCO1)S3` (centres undefined), for which, under setting [1], the AC50 is 10 µM [falling, partial curve].

For the compound `CC1CCCN(CCC(=O)c2ccc(Br)cc2)C1` (centres undefined), the AC50 under setting [1] was 15.8 µM [falling, partial curve].

Consider `CC(=O)N1CCc2c(sc3c2c(=O)n(CCc2ccccc2)c(=O)n3Cc2ccc(F)cc2)C1`, for which, under setting [1], the AC50 was 15.8 µM [falling, partial curve].

Take `CCOC(=O)Cc1c(C)nc2c(-c3ccc(Cl)cc3)c[nH]n2c1=O`: the AC50 under setting [1] was 3.98 µM [falling, partial curve].

On to `Cc1ccccc1NC(=O)Cn1c(=O)n(CCCCCC(=O)NCc2ccc3c(c2)OCO3)c(=O)c2sccc21`, for which the AC50 under setting [1] was 39.8 µM [falling, single point].

For `O=C(Nc1nc(-c2ccc(S(=O)(=O)N3CCCC3)cc2)cs1)C1COc2ccccc2O1` (centres undefined), under setting [1], the AC50 was 3.16 µM [falling, full curve].

As for `CCc1ccc(-n2c(CCC(=O)O)ccc2-c2cccs2)cc1`, the AC50 under setting [1] was 12.6 µM [falling, partial curve].
